Measurements: US20050222383A1, “Prostasin substrates and inhibitors” (IRM LLC, priority 2004, published 2005)
Some entries share one result that the patent states for a list of compounds.

Chains of the proteins cited; added tags and fusions are not shown. Residues count along the entry.
UniProt Q16651, 45-322 limits assumed: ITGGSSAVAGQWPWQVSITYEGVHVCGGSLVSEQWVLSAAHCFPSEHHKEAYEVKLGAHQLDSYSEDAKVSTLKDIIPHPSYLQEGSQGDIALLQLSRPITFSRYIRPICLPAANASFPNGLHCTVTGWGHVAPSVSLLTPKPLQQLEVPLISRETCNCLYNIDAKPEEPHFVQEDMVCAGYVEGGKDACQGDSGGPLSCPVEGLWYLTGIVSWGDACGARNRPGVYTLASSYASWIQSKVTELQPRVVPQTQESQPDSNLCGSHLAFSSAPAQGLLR

Target: T1, prostasin (Homo sapiens, UniProt Q16651)
T1 construct: eliminate the N-terminal signal peptide domain and light chain and the C-terminal GPI signal domain; honeybee melittin signal peptide (21 aa) (N); made in house; host or cells: Sf9 insect cells, baculovirus (Bac-to-Bac, pFastBac1)
Experiment: Inhibition assays of macromolecular inhibitors, prostasin activity against Ac-KHYR-acmc
Type: biochemical
Settings: Ac-KHYR-acmc substrate, Tris-CHAPS buffer; read-out: classical inhibition constants (Ki)
Protocol: Proteolytic activity of the purified prostasin was monitored by measuring the accumulation of the fluorophore 7-amino-3-carbamoylmethyl-4-methylcoumarin (acmc) or 7-amino-4-carbamoylmethylcoumarin (acc) produced by the cleavage of the tetrapeptide substrate Ac-KHYR-acmc, Ac-KHYR-acc or Ac-PRLR-acmc in assay buffer (50 mM Tris-Cl pH 9.0, 0.25% CHAPS; 10 mM CHES pH 9.0 (37° C.), 0.25% CHAPS; or 10 mM Hepes pH 7.4 (37° C.), 0.25% CHAPS) at 37° C. Assays were run in 96 or 384-well black microtiter plates. Data was collected with a Gemini XS plate reader (Molecular Devices) at λex=380 nm and λem=450 nm.
The inhibition constants of macromolecular inhibitors were calculated for prostasin. Prostasin activity against Ac-KHYR-acmc was measured in Tris-CHAPS buffer, as in “Enzyme Assays,” in the presence of 10 μM-170 pM aprotinin and soybean trypsin inhibitor (SBTI), 1 μM-17 pM α1-antitrypsin, and 200 nM-3.3 pM α1-antichymotrypsin. Rates were plotted in Prism (GraphPad) and classical inhibition constants (Ki) were calculated using the results of non-linear regression.

B1: soybean trypsin inhibitor (protein, UniProt P01070 25-205, looked up)
Trypsin inhibitor A: DFVLDNEGNPLENGGTYYILSDITAFGGIRAAPTGNERCPLTVVQSRNELDKGIGTIISSPYRIRFIAEGHPLSLKFDSFAVIMLCVGIPTEWSVVEDLPEGPAVKIGENKDAMDGWFRLERVSDDEFNNYKLVFCPQQAEDDKCGDIGISIDHDDGTRRLVVSKNKPLVVQFQKLDKESL
- Ki: > 10 µM
